Source: the supplement of paper PMC8728848
The list shows a part of the results.

Tests used:
Assay in all cases: glycan array binding signal (z-score within array); higher = stronger binding
Conditions in all cases: glycan notation: IUPAC condensed, linker removed
Gal(b1-3)GalNAc = molecular target: Gal(b1-3)GalNAc
Method in brief: (§1)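 From the Consortium for Functional Glycomics database, 3228 arrays were curated, keeping only those whose protein sequence was available. Binding is given as a within-array Z-score averaged across arrays sharing a protein sequence and across linkers. Negative Z-scores can be read as non-binding.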

[1] = molecular target: Gal(b1-3)GalNAc(a1-3)[Fuc(a1-2)]Gal(b1-4)Glc
Method in brief: as §1

[2] = molecular target: Gal(b1-3)GalNAc(a1-3)[Fuc(a1-2)]Gal(b1-4)GlcNAc
Method in brief: as §1

[3] = molecular target: Gal(b1-3)GalNAc(b1-3)Gal(a1-4)Gal(b1-4)Glc
Method in brief: as §1

[4] = molecular target: Gal(b1-3)GalNAc(b1-4)Gal(b1-4)Glc
Method in brief: as §1

[5] = molecular target: Gal(b1-3)GalNAc(b1-4)[Neu5Ac(a2-3)]Gal(b1-4)Glc
Method in brief: as §1

Gal(b1-3)GlcNAc = molecular target: Gal(b1-3)GlcNAc
Method in brief: as §1

[6] = molecular target: Gal(b1-3)GlcNAc(a1-6)Gal(b1-4)GlcNAc
Method in brief: as §1

[7] = molecular target: Gal(b1-3)GlcNAc(b1-2)Man(a1-3)[Gal(b1-3)GlcNAc(b1-2)Man(a1-6)]Man(b1-4)GlcNAc(b1-4)GlcNAc
Method in brief: as §1

[8] = molecular target: Gal(b1-3)GlcNAc(b1-2)Man(a1-3)[Gal(b1-3)GlcNAc(b1-2)Man(a1-6)]Man(b1-4)GlcNAc(b1-4)[Fuc(a1-6)]GlcNAc
Method in brief: as §1

[9] = molecular target: Gal(b1-3)GlcNAc(b1-2)[Gal(b1-3)GlcNAc(b1-6)]Man(a1-6)[Gal(b1-3)GlcNAc(b1-2)Man(a1-3)]Man(b1-4)GlcNAc(b1-4)GlcNAc
Method in brief: as §1

[10] = molecular target: Gal(b1-3)GlcNAc(b1-3)Gal(b1-3)GlcNAc
Method in brief: as §1

[11] = molecular target: Gal(b1-3)GlcNAc(b1-3)Gal(b1-4)Glc
Method in brief: as §1

[12] = molecular target: Gal(b1-3)GlcNAc(b1-3)Gal(b1-4)GlcNAc
Method in brief: as §1

[13] = molecular target: Gal(b1-3)GlcNAc(b1-3)Gal(b1-4)GlcNAc(b1-6)[Gal(b1-3)GlcNAc(b1-3)]Gal(b1-4)Glc
Method in brief: as §1

[14] = molecular target: Gal(b1-3)GlcNAc(b1-3)Gal(b1-4)[Fuc(a1-3)]GlcNAc(b1-6)[Gal(b1-3)GlcNAc(b1-3)]Gal(b1-4)Glc
Method in brief: as §1

[15] = molecular target: Gal(b1-3)GlcNAc(b1-3)GalNAc
Method in brief: as §1

[16] = molecular target: Gal(b1-3)GlcNAc(b1-6)Gal(b1-4)GlcNAc
Method in brief: as §1

[17] = molecular target: Gal(b1-3)[Fuc(a1-4)]GlcNAc
Method in brief: as §1

[18] = molecular target: Gal(b1-3)[Fuc(a1-4)]GlcNAc(b1-2)Man(a1-3)[Gal(b1-3)[Fuc(a1-4)]GlcNAc(b1-2)Man(a1-6)]Man(b1-4)GlcNAc(b1-4)GlcNAc
Method in brief: as §1

[19] = molecular target: Gal(b1-3)[Fuc(a1-4)]GlcNAc(b1-2)Man(a1-3)[Gal(b1-3)[Fuc(a1-4)]GlcNAc(b1-2)Man(a1-6)]Man(b1-4)GlcNAc(b1-4)[Fuc(a1-6)]GlcNAc
Method in brief: as §1

[20] = molecular target: Gal(b1-3)[Fuc(a1-4)]GlcNAc(b1-3)Gal(b1-3)[Fuc(a1-4)]GlcNAc
Method in brief: as §1

[21] = molecular target: Gal(b1-3)[Fuc(a1-4)]GlcNAc(b1-3)Gal(b1-4)GlcNAc
Method in brief: as §1

[22] = molecular target: Gal(b1-3)[Fuc(a1-4)]GlcNAc(b1-3)Gal(b1-4)[Fuc(a1-3)]GlcNAc
Method in brief: as §1

[23] = molecular target: Gal(b1-3)[GlcNAc(b1-6)]GalNAc
Method in brief: as §1

[24] = molecular target: Gal(b1-3)[Neu5Ac(a2-6)]GalNAc
Method in brief: as §1

[25] = molecular target: Gal(b1-3)[Neu5Ac(a2-6)]GlcNAc(b1-6)Gal(b1-4)Glc
Method in brief: as §1

[26] = molecular target: Gal(b1-3)[Neu5Ac(b2-6)]GalNAc
Method in brief: as §1

Gal(b1-4)Gal = molecular target: Gal(b1-4)Gal
Method in brief: as §1

[27] = molecular target: Gal(b1-4)GalNAc(a1-3)[Fuc(a1-2)]Gal(b1-4)GlcNAc
Method in brief: as §1

[28] = molecular target: Gal(b1-4)GalNAc(b1-3)[Fuc(a1-2)]Gal(b1-4)GlcNAc
Method in brief: as §1

Gal(b1-4)Glc = molecular target: Gal(b1-4)Glc
Method in brief: as §1

Gal(b1-4)Glc6S = molecular target: Gal(b1-4)Glc6S
Method in brief: as §1

Gal(b1-4)GlcNAc = molecular target: Gal(b1-4)GlcNAc
Method in brief: as §1

[29] = molecular target: Gal(b1-4)GlcNAc(a1-6)Gal(b1-4)GlcNAc
Method in brief: as §1

[30] = molecular target: Gal(b1-4)GlcNAc(b1-2)Man(a1-3)Man(b1-4)GlcNAc(b1-4)GlcNAc
Method in brief: as §1

[31] = molecular target: Gal(b1-4)GlcNAc(b1-2)Man(a1-3)[Gal(b1-4)GlcNAc(b1-2)Man(a1-6)]Man(b1-4)GlcNAc(b1-4)GlcNAc
Method in brief: as §1

[32] = molecular target: Gal(b1-4)GlcNAc(b1-2)Man(a1-3)[Gal(b1-4)GlcNAc(b1-2)Man(a1-6)]Man(b1-4)GlcNAc(b1-4)[Fuc(a1-6)]GlcNAc
Method in brief: as §1

[33] = molecular target: Gal(b1-4)GlcNAc(b1-2)Man(a1-3)[Gal(b1-4)GlcNAc(b1-2)][GlcNAc(b1-4)]Man(b1-4)GlcNAc(b1-4)GlcNAc
Method in brief: as §1

[34] = molecular target: Gal(b1-4)GlcNAc(b1-2)Man(a1-3)[GlcNAc(b1-2)Man(a1-6)]Man(b1-4)GlcNAc(b1-4)GlcNAc
Method in brief: as §1

[35] = molecular target: Gal(b1-4)GlcNAc(b1-2)Man(a1-3)[Man(a1-6)]Man(b1-4)GlcNAc(b1-4)GlcNAc
Method in brief: as §1

[36] = molecular target: Gal(b1-4)GlcNAc(b1-2)Man(a1-6)Man(b1-4)GlcNAc(b1-4)GlcNAc
Method in brief: as §1

[37] = molecular target: Gal(b1-4)GlcNAc(b1-2)Man(a1-6)[GlcNAc(b1-2)Man(a1-3)]Man(b1-4)GlcNAc(b1-4)GlcNAc
Method in brief: as §1

[38] = molecular target: Gal(b1-4)GlcNAc(b1-2)Man(a1-6)[Man(a1-3)]Man(b1-4)GlcNAc(b1-4)GlcNAc
Method in brief: as §1

[39] = molecular target: Gal(b1-4)GlcNAc(b1-2)[Gal(b1-4)GlcNAc(b1-4)]Man(a1-3)[Gal(b1-4)GlcNAc(b1-2)Man(a1-6)]Man(b1-4)GlcNAc(b1-4)GlcNAc
Method in brief: as §1

B1: rPitB (Streptococcus pneumoniae), A0A0I7U739 (protein)
chain: MSEIEIINAKKIYHDVPVIENLNITIPKGSLFTLLGASGCGKTTLLRMIAGFNSIKDGEFYFDDTKINNMEPSKRNIGLVFQNYAIFPHLTVRDNVAFGLMQKKVPKEELIQQTNKYLELMQIAQYAD
B1 was tested, and the “glycan array binding signal (z-score)” value (Gal(b1-3)GalNAc) was -0.203, the “glycan array binding signal (z-score)” value [1] was -0.585 and the “glycan array binding signal (z-score)” value [2] was 0.006. For the same binder, the “glycan array binding signal (z-score)” value [3] was -0.751, the “glycan array binding signal (z-score)” value [4] was 0.529 and the “glycan array binding signal (z-score)” value [5] was -1.3. The “glycan array binding signal (z-score)” value (Gal(b1-3)GlcNAc) was -0.704, the “glycan array binding signal (z-score)” value [6] was -0.219 and the “glycan array binding signal (z-score)” value [7] was 0.944. The “glycan array binding signal (z-score)” value [8] was 0.638, the “glycan array binding signal (z-score)” value [9] was 1.34 and the “glycan array binding signal (z-score)” value [10] was -0.045. The “glycan array binding signal (z-score)” value [11] was 0.856, the “glycan array binding signal (z-score)” value [12] was 0.193 and the “glycan array binding signal (z-score)” value [13] was 0.131. For the same binder, the “glycan array binding signal (z-score)” value [14] was -0.366, the “glycan array binding signal (z-score)” value [15] was 0.176 and the “glycan array binding signal (z-score)” value [16] was -0.234. The “glycan array binding signal (z-score)” value [17] was -0.025, the “glycan array binding signal (z-score)” value [18] was 3.68 and the “glycan array binding signal (z-score)” value [19] was 2.09. The “glycan array binding signal (z-score)” value [20] was 1.1, the “glycan array binding signal (z-score)” value [21] was -0.558 and the “glycan array binding signal (z-score)” value [22] was 0.005. For the same binder, the “glycan array binding signal (z-score)” value [23] was -0.326, the “glycan array binding signal (z-score)” value [24] was 0.092 and the “glycan array binding signal (z-score)” value [25] was -0.142. The “glycan array binding signal (z-score)” value [26] was -0.372, the “glycan array binding signal (z-score)” value (Gal(b1-4)Gal) was -0.062 and the “glycan array binding signal (z-score)” value [27] was 0.733. For the same binder, the “glycan array binding signal (z-score)” value [28] was -0.409, the “glycan array binding signal (z-score)” value (Gal(b1-4)Glc) was -0.141 and the “glycan array binding signal (z-score)” value (Gal(b1-4)Glc6S) was -0.024. For the same binder, the “glycan array binding signal (z-score)” value (Gal(b1-4)GlcNAc) was -0.449, the “glycan array binding signal (z-score)” value [29] was 0.072 and the “glycan array binding signal (z-score)” value [30] was 0.13. For the same binder, the “glycan array binding signal (z-score)” value [31] was 0.354, the “glycan array binding signal (z-score)” value [32] was 0.8 and the “glycan array binding signal (z-score)” value [33] was 0.058. The “glycan array binding signal (z-score)” value [34] was -0.568, the “glycan array binding signal (z-score)” value [35] was -0.905 and the “glycan array binding signal (z-score)” value [36] was -0.551. For the same binder, the “glycan array binding signal (z-score)” value [37] was -0.347, the “glycan array binding signal (z-score)” value [38] was -0.362 and the “glycan array binding signal (z-score)” value [39] was -0.505.
